In publication PMC5011436:

Target: GST alone
Test: pull-down; GST or GST-Rad24 on glutathione sepharose or magnetic beads, mixed with fission yeast protein extract of Sts5-HA strains overnight at 4°C; washed with TRIS lysis buffer (50 mM TrisCl pH 7.7, 150 mM NaCl, 5 mM EDTA, 5% glycerol, 1% Triton X); anti-HA western blot; extracts of untreated cells, of orb6-as2 cells with DMSO and of orb6+ cells with DMSO or 50 μM 1-NA-PP1; only the target purified

binding: no binding
B1: Sts5-HA (protein, UniProt O74454 1-1066)
chain: MDEEFENDFPYKVMLNQQQDPSDAQSSPTFVPSANPSLTTPWLQTTPSANRPTWLPLQQHMHQLRHTGLLPAVESSFVHGHRRSASAGVGMGNFSNQATIPSNSPAVSNMQPPTQGGQPLYPTNFFTTSVSASSDSFPNSPTVPSKFSLNPSVATSTNISPRRHAKSHSVASVSSPNSHNAVPFTPHAFVPPVNNASPLPALNTLPQLLRPRNLDAQWRPSSLSQTNSPTHAANPSFPGTIVTHNTSNFRPEGGGHRHRRSTGSLSVGSSGSGFSSGGSGNPRKNLFSPYLPQSSIPALLAERRLVTGILIVSKKNRSDAFVSVDGLDAEVFICGSKDRNRALEGDVVAIELLDVDEVWAGKLEKEENRRRKDPISTRGSFDNLRIDAVPFEVPQRSAIKARDDEQVEGQTLFLLDQKQLGADEKPKYAGHVVAVLQRAPGQVFSGTLGILRPSSAANKERQTSSGNQGSSNNSGNDKPKIVWFKPSDKRVPLIAIPTEQAPTDFLGNDQAYAQRLFLASIKRWPVTSLHPFGMLVGELGSMDSMSAQVSALLHDTGVHSEPWEGSAATSAVTALNALSDNFLNVAGCADYRSEDVFLFVKNDVSKAAVSEVKQHESNINSSSATDFVSSAFHIRPTSTGYHVGIHVTDVSRVIEPGSPLDRELQRRSIAVNLCQKSVPLFPTTLGEALSLREDKDCYTMSLLLDVSSTGKIRGTWIGWAVIRPRKAYTMKEADELLQTDARLRLFHTVSSRLRTHHLGTDVPLSRYCRLVRRWDEESCSFDPNETNLFISSAVEVLRETLLDAANRAVASHLRQEFRENAFLRTQRLPSRENCRILQSMAIQMGCVLDLSSTKSLLRSLSLIEDDTVRNILQLYYYKVTPRAVYEMQKYKGNLASQMMSLGIEDESDDLTHFTAPLERYGDIVVHYQLQLLLRGELASEKRLRVWSQAANDASRRLVISKFAQETSIHIKIFSDWAESQVWQDGLVCFVAPSYFDVFFPSLGMEKRVHLDLLNLTHVRFEEDQGILSLYDESGAVTVVKLLTSVKVKLFVQLSTPPLINVSNVEF

These are yes or no findings as the source states them, for the method shown. In cells and extracts the contact can be indirect. Sequences can lack the tags named with a protein.
